## Primary screen of a compound library

Amino acid sequences for entries named in this document (tags omitted). Residues count along the entry.
UniProt P9WFT3, whole entry: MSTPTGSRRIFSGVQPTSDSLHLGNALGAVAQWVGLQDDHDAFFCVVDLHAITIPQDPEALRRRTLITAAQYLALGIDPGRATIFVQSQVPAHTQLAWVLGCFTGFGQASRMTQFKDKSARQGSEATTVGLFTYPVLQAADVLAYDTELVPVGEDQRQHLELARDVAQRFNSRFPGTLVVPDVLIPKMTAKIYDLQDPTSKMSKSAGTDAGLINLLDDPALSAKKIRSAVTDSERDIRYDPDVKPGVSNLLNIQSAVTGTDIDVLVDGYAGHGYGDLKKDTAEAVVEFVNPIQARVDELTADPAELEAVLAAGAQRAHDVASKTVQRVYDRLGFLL
UniProt P9WPC5, whole entry: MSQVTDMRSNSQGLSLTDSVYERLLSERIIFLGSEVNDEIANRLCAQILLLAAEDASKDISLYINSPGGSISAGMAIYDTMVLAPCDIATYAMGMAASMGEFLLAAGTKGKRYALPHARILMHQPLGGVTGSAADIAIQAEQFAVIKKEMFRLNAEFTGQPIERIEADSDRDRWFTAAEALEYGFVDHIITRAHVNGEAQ
UniProt P9WPC3, whole entry partner: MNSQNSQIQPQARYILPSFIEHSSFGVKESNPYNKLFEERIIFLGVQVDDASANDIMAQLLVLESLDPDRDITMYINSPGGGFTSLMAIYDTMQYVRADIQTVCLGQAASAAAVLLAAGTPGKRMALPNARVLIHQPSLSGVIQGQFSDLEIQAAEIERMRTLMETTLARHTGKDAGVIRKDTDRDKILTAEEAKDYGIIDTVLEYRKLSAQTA
UniProt Q8IDJ8, 1-583: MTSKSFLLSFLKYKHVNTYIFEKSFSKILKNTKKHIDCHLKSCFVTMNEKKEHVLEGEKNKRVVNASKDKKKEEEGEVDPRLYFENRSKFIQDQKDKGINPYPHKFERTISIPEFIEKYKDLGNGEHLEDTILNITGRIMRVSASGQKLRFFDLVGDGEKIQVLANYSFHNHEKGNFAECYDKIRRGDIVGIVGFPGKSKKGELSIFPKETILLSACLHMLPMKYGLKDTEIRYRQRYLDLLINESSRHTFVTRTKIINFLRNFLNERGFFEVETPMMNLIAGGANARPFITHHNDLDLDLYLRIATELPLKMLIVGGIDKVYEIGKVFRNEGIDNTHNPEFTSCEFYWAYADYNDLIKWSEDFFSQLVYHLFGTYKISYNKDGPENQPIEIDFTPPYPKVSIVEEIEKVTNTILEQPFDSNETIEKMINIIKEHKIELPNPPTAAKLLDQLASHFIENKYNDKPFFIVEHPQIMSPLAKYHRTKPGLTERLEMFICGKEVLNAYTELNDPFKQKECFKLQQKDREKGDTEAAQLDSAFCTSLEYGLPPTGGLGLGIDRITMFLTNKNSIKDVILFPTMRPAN
UniProt P9WNZ1, whole entry: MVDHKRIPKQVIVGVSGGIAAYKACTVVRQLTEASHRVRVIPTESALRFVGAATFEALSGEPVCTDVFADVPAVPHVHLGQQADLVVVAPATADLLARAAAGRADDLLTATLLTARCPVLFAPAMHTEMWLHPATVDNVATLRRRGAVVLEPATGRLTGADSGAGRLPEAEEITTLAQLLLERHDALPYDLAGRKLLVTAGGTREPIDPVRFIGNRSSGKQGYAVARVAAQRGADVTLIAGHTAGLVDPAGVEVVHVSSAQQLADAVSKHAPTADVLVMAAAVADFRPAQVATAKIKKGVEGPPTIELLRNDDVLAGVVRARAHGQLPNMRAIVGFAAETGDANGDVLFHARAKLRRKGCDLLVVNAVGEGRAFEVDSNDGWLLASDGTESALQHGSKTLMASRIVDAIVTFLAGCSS

Data taken from ChEMBL document CHEMBL3988442, “University of Dundee, Small-Polar-MMV Screening Library” (2021).

MtTrpRS: 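Enzyme assay of tryptophanyl-tRNA synthetase; the read-out is not stated. Target: Tryptophan-tRNA ligase, Mycobacterium tuberculosis (UniProt P9WFT3). Tested at 10 µM. Higher most likely means stronger inhibition; the record gives no direction and few retests gave an IC50. Of about 65,000 compounds tested this way, about 64 (0.098%) reached 50% or more in at least one test.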
ClpP1P2: 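Protease assay of ClpP1P2, read by the AMC dye that it sets free. Target: ClpP1P2, Mycobacterium tuberculosis (UniProt P9WPC5 and UniProt P9WPC3). Concentration: 50 µM. Direction is inferred from only a few compounds that gave an IC50; most scored high, so higher reads as stronger inhibition. Most other retested compounds had strongly negative values. Of about 69,000 compounds tested this way, about 10 (0.015%) reached 50% or more in at least one test.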
Leishmania in macrophages: 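Cell assay of Leishmania donovani living inside macrophages; the read-out is not stated. Tested at 30 µM. Direction is inferred from retests: higher values go with stronger inhibition. Of about 69,000 compounds tested this way, about 1,000 (1.5%) reached 50% or more in at least one test.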
PfKRS1: 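Enzyme assay of the cytosolic lysyl-tRNA synthetase in 384-well plates, read by luminescence. Target: Lysine-tRNA ligase, Plasmodium falciparum 3D7 (UniProt Q8IDJ8). Tested at 30 µM. Direction is inferred from only a few compounds that gave an IC50; most scored high, so higher reads as stronger inhibition. Of about 69,000 compounds tested this way, about 49 (0.071%) reached 50% or more in at least one test.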
CoaBC: 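Enzyme assay of CoaBC with a phosphate dye (Biomol Green) read at 650 nm. Target: Coenzyme A biosynthesis protein CoaBC, Mycobacterium tuberculosis (UniProt P9WNZ1). Compounds at 30 µM. Higher reads as stronger inhibition, judged from the few compounds that gave an IC50. Most strong results did not repeat in a second test. Size under these conditions: about 67,000 compounds, about 40 of them at 50% or above in at least one test.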

Each number is a percent effect as filed.
The record does not define 0% and 100%; most values in the screen are far below 50% and negative numbers occur (in some assays of this library far below -100).
The compounds are a random part of those screened.
Two or more numbers in one place are separate tests of the same structure; such repeats can differ widely.
A dash means the value is not listed here; it may have been measured.

Compound,MtTrpRS,ClpP1P2,Leishmania in macrophages,PfKRS1,CoaBC
Cc1nc2c(c(=O)[nH]1)CN(Cc1ccc3c(c1)CCCN3C)CC2,-4.148%,10.67%,0.615%,0.6552%,25.8% and 14.95%
CC(C)CNC[C@H]1O[C@H](Cc2cc(-c3ccccn3)on2)CC[C@@H]1O,-1.208%,-5.24%,11.46%,3.929%,2.581%
COc1ccc(C(=O)N(Cc2cnn(C)c2)C(C)C)cc1OC(F)F,-5.796%,-32.74%,27.59%,2.141%,5.492%
O=C(c1ccc(N2CCOCC2)nc1)N1CCCC(n2cccn2)C1 (centres undefined),3.202%,-20.14%,8.13%,-0.2572%,5.45%
CC(C)CNC(=O)C(C)N1CCN(C2CCN(C(C)C)CC2)CC1 (centres undefined),2.166%,-10.27%,19.26%,6.203%,0.9828%
c1cncc(COC[C@@H]2CCC[C@@]23CNCCO3)c1,-,11.03%,-,-2.346%,-0.9877%
Cc1cccn2c(=O)cc(CN3CCCC3Cn3cncn3)nc12 (centres undefined),-4.661%,2.018%,9.636%,4.727%,12.45%
CSCCC(=O)N[C@H]1CC[C@H](Nc2nccc(-c3ccncc3)n2)C1,-3.856%,-13%,5.395% and 28.32%,-2.65%,3.053%
CS(=O)(=O)NC[C@H]1OC[C@H]2CN(CCc3ccccc3)CC[C@H]21,-,11.79%,-,4.381%,2.927%
N#Cc1ccc(S(=O)(=O)N2CC(CC(=O)O)c3ccccc32)cc1 (centres undefined),-3.707%,-20.95%,23.88%,3.774%,1.129%
Cc1ccc(=O)n(CC2(O)CCN(Cc3ccsc3)CC2)n1,0.7525%,-5.669%,7.761%,4.386%,4.722%
COCCc1noc(-c2cn(Cc3ccccc3C)nn2)n1,-2.171%,-25.46%,31.32%,4.192%,1.863%
CCNc1cc2c(nn1)CCN(C(=O)Cc1c(C)noc1C)C2,1.657%,-5.968%,-0.1174%,2.442%,8.18%
CC(C#N)CSc1ccccc1NCC(=O)NC1CCCCC1 (centres undefined),-2.557%,-2.176%,-61.58%,1.674%,0.9615%
OCCOCc1ncn2c1CN(Cc1cccs1)CCC2,-10.62%,6.463%,-,0.7895%,0.5076%
Cc1ccc(CCNC(=O)c2cccnc2)o1,0.1698%,11.57%,8.262%,3.999%,8.537%
O=C(O)C(F)(F)F.O=C(c1ccncc1)N1CCOC2(COCCN(c3cncnc3)C2)C1 (centres undefined),-,-,28.05%,-,-
COc1c(F)cc(CN2CCC3(CC2)C(C(=O)O)CC(=O)N3C)cc1Cl (centres undefined),0.2212%,-11.15%,5.649%,2.616%,3.704%
O=C(CN1CCNC1=O)NCc1ccc2sccc2c1,-2.108%,-15.61%,46.12%,-0.04577%,6.294%
CN(C)Cc1cc(C2CCCN(S(=O)(=O)c3cccc(Cl)c3)C2)nn1C (centres undefined),-5.543%,-2.794%,33.83%,0.09153%,1.865%
COC(=O)c1sccc1S(=O)(=O)N1CCC(Oc2ncccc2Cl)CC1,2.067%,-8.603%,33.36%,-1.032%,-10.02%
CNC(=O)N1CCC2(CC1)CNc1ccc(F)cc12.Cl,-,-,8.536%,-,-
COC(=O)CCN(CC1CCCO1)C(=O)Cc1ccc(OC)c(OC)c1 (centres undefined),-0.2913%,-7.307%,-19.98%,-1.731%,5.104%
Cc1nccn1-c1ccc(C(C)NCCC(C)C)cc1 (centres undefined),-2.882%,9.379%,21.68%,3.458%,-2.215%
COCCN1CCC2(CC1)CC(NC(=O)CN(C)C)c1ccccc1O2.O=C(O)C(F)(F)F.O=C(O)C(F)(F)F (centres undefined),-,-,52.21%,-,-
O=C(O)C(F)(F)F.[H][C@@]12CN(CC3CCOC3)C[C@]1([H])OCCN2c1cccnc1 (some centres undefined),-,-,31.71%,-,-
O=C(c1ccncc1)N1CCCn2nnc(COCCO)c2C1,1.763%,6.95%,-,1.154%,0.8333%
O=C(CSCc1ccncc1)NCc1csc(Br)c1,-2.328%,-38.53%,6.076%,0.1608%,-6.166%
CN1CCCc2cc(CNC(=O)c3ccc(NC4CC4)nc3)ccc21,1.657%,7.823%,36.26%,-1.96%,3.394%
O=C(C1CC1)N1CCC2(CC1)CNCc1ccccc12,10.9%,5.361%,8.134%,9.291%,-
Cc1ccc(Oc2ncccc2CNC2CCCCC2)cn1,2.199%,-7.138%,28.06%,2.592%,-9.442%
COc1ccc(S(=O)(=O)NCC(O)c2sccc2C)cc1C (centres undefined),-3.571%,-2.195%,8.87% and 15.5%,4.719%,-1.48%
O=C(Nc1cnccn1)[C@H]1COC[C@H]2CN(C3CCCC3)C[C@H]21,-3.565%,-2.426%,-,1.264%,1.863%
O=C(c1ccc2[nH]nnc2c1)N1CC[C@H](O)[C@]2(CCCO2)C1,-2.889%,-23.94%,26.64%,1.03%,5.34%
O=C(Cc1ccccn1)N1CCN(C(=O)c2cccc3[nH]ncc23)CC1,-3.216%,9.018%,5.542%,-1.331%,-10.7%
O=C(O)C(F)(F)F.[H][C@]12CCN(C(=O)c3ccccc3)CC[C@@]1([H])S(=O)(=O)CCN2C,-,-,-17.1%,-,-
COC1CCN(C(=O)c2ccc3ncsc3c2)CC1,-0.9338%,7.489%,-9.852%,6.09%,-3.212%
O=C(c1ncccn1)N1C[C@H]2CCC[C@@]2(COCc2ccncc2)C1,-1.213%,5.743%,-,-2.187%,6.464%
Cc1cccc(CN2CCN3C(=O)NC[C@H]3C2)n1,-3.067%,-18.56%,-,8.017%,1.935%
O=C(Cc1noc2ccccc12)N1CCCC1c1noc(C2CC2)n1 (centres undefined),-1.956%,-7.562%,-12.53%,7.658%,-1.305%
CN1CCO[C@@H]2CN(C(=O)c3ccc4[nH]ccc4c3)CC[C@@H]2C1,-6.623%,0.7217%,-,-0.1906%,5.911%
CC(C)CC(=O)N1CCCC2(CC(C(=O)Nc3ccccc3)=NO2)C1 (centres undefined),-1.906%,-7.136%,2.314%,2.801%,-6.667%
CCOc1ccc(C(C)NC(=O)N2CCC(C(N)=O)CC2)cc1OC (centres undefined),-3.173%,-8.423%,24.2%,2.359%,2.772%
CC(Sc1nnnn1C1CCOCC1)C(F)(F)F (centres undefined),-4.045%,-5.265%,23.46%,2.107%,-4.551%
CCCn1nc(-c2nc(COC)no2)ccc1=O,-2.386%,-10.38%,-11.2%,5.176%,6.09%
COc1ccc(CNC(=O)N2CCC(Cc3cnn(C)c3)C2)cc1C (centres undefined),2.153%,-2.607%,13.74%,6.986%,5.181%
c1cnc2[nH]c(C3CCCNC3)c(CN3CCCOCC3)c2c1 (centres undefined),-,9.111%,-,1.629%,-4.902%

Some entries from above, unchanged:

- O=C(O)C(F)(F)F.[H][C@@]12CN(CC3CCOC3)C[C@]1([H])OCCN2c1cccnc1 (some centres undefined) : Leishmania in macrophages: 31.71%
- OCCOCc1ncn2c1CN(Cc1cccs1)CCC2 : MtTrpRS: -10.62%; ClpP1P2: 6.463%; PfKRS1: 0.7895%; CoaBC: 0.5076%
- Cc1ccc(Oc2ncccc2CNC2CCCCC2)cn1 : MtTrpRS: 2.199%; ClpP1P2: -7.138%; Leishmania in macrophages: 28.06%; PfKRS1: 2.592%; CoaBC: -9.442%
- COC(=O)c1sccc1S(=O)(=O)N1CCC(Oc2ncccc2Cl)CC1 : MtTrpRS: 2.067%; ClpP1P2: -8.603%; Leishmania in macrophages: 33.36%; PfKRS1: -1.032%; CoaBC: -10.02%